Assay results published in patent US20050079503A1, “Binding domain of Siah (seven in absentia homolog) protein” (PETER MacCALLUM CANCER INSTITUTE, ST. VINCENT'S INSTITUTE …, priority 2001, published 2005).
No constants are given. Whether binding was seen depends on the method and setting. Some binding calls cover weakened binding; strength is not graded here. Tags and fused reporters may be left off the sequences shown. Blank lines part the entries; values can stand above or below the binder they belong to.

What was measured:
GST-PHYL108-130 [1] = target: T1, GST-PHYL108-130 (Drosophila); experiment: pull-down on glutathione-Sepharose beads carrying the GST fusion of the peptide
T1 construct: also called PHYL peptide as a fusion protein with glutathione-S-transferase; not shown: glutathione-S-transferase (GST) fusion partner
T1 chain: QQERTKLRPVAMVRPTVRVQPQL

GST-PHYL108-130 [2] = target: T1, GST-PHYL108-130; experiment: pull-down on GSH-Sepharose with immobilised GST-PHYL108-130, Coomassie-stained SDS-PAGE
GST-PHYL108-130 [3] = target: T1, GST-PHYL108-130; experiment: pull-down: GST-PHYL108-130 on GSH-Sepharose mixed with MBP-Siah, Coomassie-stained SDS-PAGE

binding (GST-PHYL108-130 [1]): binds
B1: SINA (seven in absentia), Drosophila (protein, UniProt P21461 1-314, looked up)
chain: MSNKINPKRREPTAAAAGAGATGVATNTSTSTGSSSAGNTSSANTSSSSSSSLSSAGGGDAGMSADLTSLFECPVCFDYVLPPILQCSSGHLVCVSCRSKLTCCPTCRGPLANIRNLAMEKVASNVKFPCKHSGYGCTASLVYTEKTEHEETCECRPYLCPCPGASCKWQGPLDLVMQHLMMSHKSITTLQGEDIVFLATDINLPGAVDWVMMQSCFGHHFMLVLEKQEKYDGHQQFFAIVQLIGSRKEAENFVYRLELNGNRRRLTWEAMPRSIHEGVASAIHNSDCLVFDTSIAQLFADNGNLGINVTISLV

binding (GST-PHYL108-130 [2]): binds
B2: MBP-Siah1a-ZC fusion protein (protein, mouse, UniProt P61092 80-282, looked up, not shown: large carriers)
chain: GSIRNLAMEKVANSVLFPCKYASSGCEITLPHTEKAEHEELCEFRPYSCPCPGASCKWQGSLDAVMPHLMHQHKSITTLQGEDIVFLATDINLPGAVDWVMMQSCFGFHFMLVLEKQEKYDGHQQFFAIVQLIGTRKQAENFAYRLELNGHRRRLTWEATPRSIHEGIATAIMNSDCLVFDTSIAQLFAENGNLGINVTISMC

binding (GST-PHYL108-130 [3]): binds
binding (GST-PHYL108-130 [1]): binds
B3: MBP-Siah (protein, UniProt P61092 80-282, looked up, not shown: large carriers)
chain: B2 chain
